In assay [1] the target is T1, IRS2 (Dahl rat kidney) (rat (endogenous in Dahl rat kidney)) (UniProt F1MAL5).
T1 sequence: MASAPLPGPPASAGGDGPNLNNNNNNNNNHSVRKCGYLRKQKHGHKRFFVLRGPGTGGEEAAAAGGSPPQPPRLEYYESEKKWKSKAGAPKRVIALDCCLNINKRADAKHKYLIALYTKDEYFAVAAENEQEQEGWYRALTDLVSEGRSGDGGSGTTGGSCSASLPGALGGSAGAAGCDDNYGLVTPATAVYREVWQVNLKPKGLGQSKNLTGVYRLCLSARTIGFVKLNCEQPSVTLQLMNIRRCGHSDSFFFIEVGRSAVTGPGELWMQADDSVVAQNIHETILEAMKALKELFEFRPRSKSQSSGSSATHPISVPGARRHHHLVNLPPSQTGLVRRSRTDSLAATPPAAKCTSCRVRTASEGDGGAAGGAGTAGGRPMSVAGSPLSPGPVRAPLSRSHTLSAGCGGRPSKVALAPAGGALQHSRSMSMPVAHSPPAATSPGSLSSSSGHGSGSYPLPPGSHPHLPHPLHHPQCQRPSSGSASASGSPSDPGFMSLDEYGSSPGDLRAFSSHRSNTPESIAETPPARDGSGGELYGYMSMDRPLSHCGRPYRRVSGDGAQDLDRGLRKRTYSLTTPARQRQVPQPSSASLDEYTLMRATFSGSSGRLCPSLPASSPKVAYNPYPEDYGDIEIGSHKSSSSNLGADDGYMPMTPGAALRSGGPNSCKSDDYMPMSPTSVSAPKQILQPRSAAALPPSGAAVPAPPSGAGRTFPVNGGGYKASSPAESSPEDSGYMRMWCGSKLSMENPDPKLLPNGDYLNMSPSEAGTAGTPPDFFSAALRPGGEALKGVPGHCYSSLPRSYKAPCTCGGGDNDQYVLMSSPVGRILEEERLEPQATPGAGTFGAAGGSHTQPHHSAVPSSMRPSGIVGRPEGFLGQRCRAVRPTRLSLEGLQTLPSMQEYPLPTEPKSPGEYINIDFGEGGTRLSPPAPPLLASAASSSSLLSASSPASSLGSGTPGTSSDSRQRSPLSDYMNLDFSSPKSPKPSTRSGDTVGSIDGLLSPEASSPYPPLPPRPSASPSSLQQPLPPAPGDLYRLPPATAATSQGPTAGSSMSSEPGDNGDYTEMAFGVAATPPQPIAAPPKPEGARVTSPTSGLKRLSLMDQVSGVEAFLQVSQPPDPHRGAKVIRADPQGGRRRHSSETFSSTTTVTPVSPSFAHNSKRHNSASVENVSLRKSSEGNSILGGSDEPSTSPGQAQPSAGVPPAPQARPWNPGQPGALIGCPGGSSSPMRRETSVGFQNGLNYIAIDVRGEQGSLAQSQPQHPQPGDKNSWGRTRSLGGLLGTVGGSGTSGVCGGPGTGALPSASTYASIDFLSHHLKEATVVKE
As to the kind of experiment: co-IP; kidney tissue homogenised in CelLytic M, diluted in PBS, about 1.5 mg total protein with 30 ug agarose-conjugated anti-IRS2 antibody, overnight at 8 °C, one wash in ice-cold PBS, elution in 0.1 M glycine; eluates assayed for Rictor and IGF1R by ELISA, result as Rictor::IGF1R ratio (AU); animals: Dahl rats on high-salt diet with saline or nephrilin, CD1 mice sham or rhabdomyolysis (glycerol) with saline or nephrilin.

Assay [2] addresses T2, IRS2 (CD1 mouse kidney) (mouse (endogenous in CD1 mouse kidney)) (UniProt P81122).
T2 sequence: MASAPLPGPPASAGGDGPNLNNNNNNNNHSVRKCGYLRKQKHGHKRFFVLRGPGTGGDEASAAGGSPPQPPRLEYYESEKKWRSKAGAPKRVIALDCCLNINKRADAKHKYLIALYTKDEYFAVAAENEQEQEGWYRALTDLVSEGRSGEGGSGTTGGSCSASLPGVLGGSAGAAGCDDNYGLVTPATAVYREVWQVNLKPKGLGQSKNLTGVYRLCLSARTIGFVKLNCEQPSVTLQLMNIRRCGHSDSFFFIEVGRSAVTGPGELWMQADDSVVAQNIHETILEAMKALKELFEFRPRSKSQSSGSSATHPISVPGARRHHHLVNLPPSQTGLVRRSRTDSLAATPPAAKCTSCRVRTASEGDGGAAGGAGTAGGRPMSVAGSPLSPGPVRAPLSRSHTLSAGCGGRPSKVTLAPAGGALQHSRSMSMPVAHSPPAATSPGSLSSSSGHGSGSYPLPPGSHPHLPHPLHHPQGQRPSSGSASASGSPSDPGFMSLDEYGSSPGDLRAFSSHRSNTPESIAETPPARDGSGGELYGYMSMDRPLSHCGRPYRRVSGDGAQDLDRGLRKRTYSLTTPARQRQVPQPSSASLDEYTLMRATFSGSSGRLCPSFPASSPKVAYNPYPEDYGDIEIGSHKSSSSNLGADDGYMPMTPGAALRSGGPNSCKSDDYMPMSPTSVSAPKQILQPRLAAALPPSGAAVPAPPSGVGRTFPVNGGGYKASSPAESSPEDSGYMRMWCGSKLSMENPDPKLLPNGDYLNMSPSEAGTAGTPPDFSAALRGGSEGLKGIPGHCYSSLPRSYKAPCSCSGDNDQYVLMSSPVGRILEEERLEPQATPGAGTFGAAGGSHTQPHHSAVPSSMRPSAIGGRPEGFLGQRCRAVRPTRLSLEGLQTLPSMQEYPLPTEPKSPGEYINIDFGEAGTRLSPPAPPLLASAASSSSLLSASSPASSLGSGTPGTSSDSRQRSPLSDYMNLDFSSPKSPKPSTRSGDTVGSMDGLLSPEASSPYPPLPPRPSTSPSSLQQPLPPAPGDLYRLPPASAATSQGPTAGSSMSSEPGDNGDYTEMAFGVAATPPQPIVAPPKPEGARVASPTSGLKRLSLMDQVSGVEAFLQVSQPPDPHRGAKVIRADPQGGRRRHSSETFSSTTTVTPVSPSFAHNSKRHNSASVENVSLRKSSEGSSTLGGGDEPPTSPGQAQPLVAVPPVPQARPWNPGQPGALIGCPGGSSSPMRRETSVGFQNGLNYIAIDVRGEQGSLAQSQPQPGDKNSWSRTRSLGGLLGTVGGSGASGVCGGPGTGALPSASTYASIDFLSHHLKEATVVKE
Described as above.

No constants are given. Whether binding was seen depends on the method and setting. Binding seen in cells or lysates may run through a third protein. A result given as binding can be weak or reduced; the word gives no strength.

Take IGF1R (Dahl rat kidney) (receptor): in assay [1], the binding result was “binds”.

Regarding Rictor (Dahl rat kidney), in assay [1], the binding entry is recorded as “binds”.

IGF1R (CD1 mouse kidney) (receptor): the binding result in assay [2] is “binds”.

For the origin of these results see article PMC3496474.
